Data as given in PubChem BioAssay AID686938 (Drosophila RNAi Screening Center, 2013)
Screen: 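Fly genes required for calcium entry once internal stores are emptied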 (primary screen). Cells: Drosophila S2R+ cells. Reagent: long dsRNA against Drosophila genes, about 0.25 µg dsRNA per well, roughly 10,000 cells. Timing: 5 days of knock-down before the calcium assay. Conditions: thapsigargin (SERCA pump blocker) to empty calcium stores; entry signal taken 4 min after adding it. Detection: 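Duplicate raw fluo-4 intensities per well from a plate reader, at rest and four minutes after thapsigargin emptied calcium stores; entry-to-rest ratio filled for only some wells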. Scale: calcium entry signal: higher = stronger calcium signal after store depletion; resting calcium signal: higher = higher resting calcium signal. Hit rule: 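Hit if the duplicate-averaged plate z-score for entry over resting signal is under −3; wells with weak total dye signal (Fmax z < −2) or more than 5 off-targets removed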. Meaning of the calls: active = strongly reduced calcium entry; inactive = no strong reduction.
In all, the deposit lists about 23,000 reagents; this is a random part of those that have a named target and a result. Over the whole deposit, 75 (0.33%) are marked active. 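Raw plate signals without normalisation; calls rest on plate z-scores that were not deposited; ratio present for only 364 wells.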 Names joined by + are all predicted targets of the reagent. The record does not give: the dose of the treatment.

calcium entry signal, replicate 1 (fluorescence units) | calcium entry signal, replicate 2 (fluorescence units) | resting calcium signal, replicate 1 (fluorescence units) | resting calcium signal, replicate 2 (fluorescence units) | activity call | gene | DRSC id
3.10e7 | 4.96e7 | 1.58e7 | 2.18e7 | inactive | CG11893 | DRSC14429
3.73e7 | 3.18e7 | 1.89e7 | 1.43e7 | inactive | brwl | DRSC01080
4.41e7 | – | 2.07e7 | – | inactive | brwl | DRSC02729
3.94e7 | 4.51e7 | 1.73e7 | 3.05e7 | inactive | park + Targ3 | DRSC11617
1.84e7 | 2.65e7 | 9.98e6 | 1.23e7 | inactive | NimA | DRSC01353
3.21e7 | 3.77e7 | 1.58e7 | 2.06e7 | inactive | NimA | DRSC22170
2.12e7 | 2.63e7 | 1.49e7 | 1.74e7 | inactive | dmt | DRSC16932
4.55e7 | 3.72e7 | 2.08e7 | 1.86e7 | inactive | CG12224 | DRSC14480
4.28e7 | 4.36e7 | 1.82e7 | 1.93e7 | inactive | cato | DRSC07589
2.13e7 | 2.88e7 | 1.05e7 | 2.09e7 | inactive | Cpr73D | DRSC11084
3.24e7 | 3.78e7 | 1.41e7 | 2.70e7 | inactive | CG8833 | DRSC11050

Quoted from the entries so far for reference:
calcium entry signal, replicate 1 (fluorescence units) | calcium entry signal, replicate 2 (fluorescence units) | resting calcium signal, replicate 1 (fluorescence units) | resting calcium signal, replicate 2 (fluorescence units) | activity call | gene | DRSC id
4.41e7 | – | 2.07e7 | – | inactive | brwl | DRSC02729
3.94e7 | 4.51e7 | 1.73e7 | 3.05e7 | inactive | park + Targ3 | DRSC11617

The list goes on:
calcium entry signal, replicate 1 (fluorescence units) | calcium entry signal, replicate 2 (fluorescence units) | resting calcium signal, replicate 1 (fluorescence units) | resting calcium signal, replicate 2 (fluorescence units) | activity call | gene | DRSC id
3.84e7 | 2.46e7 | 2.58e7 | 1.20e7 | inactive | CG13671 | DRSC10030
3.45e7 | 4.93e7 | 1.76e7 | 2.08e7 | inactive | CG1894 | DRSC15396
5.56e7 | 3.75e7 | 3.07e7 | 1.79e7 | inactive | CG32816 | DRSC17337
3.75e7 | 4.20e7 | 1.93e7 | 1.95e7 | inactive | BORCS6 | DRSC08514
3.50e7 | 5.19e7 | 1.58e7 | 2.30e7 | inactive | CG3288 | DRSC11745
4.71e7 | 5.46e7 | 2.12e7 | 2.56e7 | inactive | Antp | DRSC12490
4.52e7 | 3.73e7 | 2.20e7 | 1.59e7 | inactive | Antp | DRSC23104
4.84e7 | – | 2.50e7 | – | inactive | CG3702 | DRSC00628
2.92e7 | 3.55e7 | 1.45e7 | 1.64e7 | inactive | c12.2 | DRSC18751
2.10e7 | 2.94e7 | 1.21e7 | 1.44e7 | inactive | CG4198 | DRSC18354
5.13e7 | 3.40e7 | 2.25e7 | 1.45e7 | inactive | SkpC | DRSC20375
4.12e7 | 4.86e7 | 2.15e7 | 2.20e7 | inactive | CG7991 | DRSC08609
4.56e7 | – | 2.03e7 | – | inactive | CG1416 | DRSC03706
